Measured values: patent publication US9018256B2, “Feed additive for animals of P-thymol, salt derivative or ester derivative thereof” (priority 2011, dated 2015)
Some results were stated once for a whole list of compounds, not compound by compound.

Assay: Changes in chicken complete formula feed during preservation (gas chromatography)
Settings: placed for 2 months

SMILES: Cc1ccc(C(C)C)c(O)c1 [thymol, 5-methyl-2-isopropyl-phenol]
- loss in complete formula feed: exceeds 50%
